In PubChem BioAssay AID328 (DTP/NCI, 2004):
The list shows only some results of the screen, not a fair sample: it is rich in T/C values a quarter to a half above the control, in often repeated tests (any T/C) and in doses without a T/C. Further doses and runs are listed elsewhere. T/C is the treated group as % of the vehicle group. Some entries give survivors of the animals treated and no T/C: the source holds a T/C of zero for them, seemingly a mark for toxic or unscored doses. Some survivor counts are full or nearly so, which does not show that the dose was tolerated: the source hardly ever lists a survival T/C far under the control, and the zero likely stands for such cases as well. Counts of survivors are from the toxicity check (mostly the fifth day) where no day follows; animals may have died later. Schedule codes are those of the source, read here as Q, the interval in days (D) or hours (H), X, the number of doses. Where survival is the endpoint, this PubChem deposit counts one and a half times the control or more as active, and values a quarter to a half above the control carry no call in these data; other NCI protocols may use other cut-offs. Counts like (3×) stand for listed records that agree. Some entries hold several experiments; the results are listed from low to high. Some T/C values carry the count of animals alive at the toxicity check (mostly the fifth day); where none is given, no animal had died by that day.

Test system: BDF1 mice, P388 leukemia ip, median survival T/C
Assay: NCI In Vivo Anticancer Drug Screen. Data for tumor model P388 Leukemia (intraperitoneal) in B6D2F1 (BDF1) mice
Conditions: T/C endpoint: median survival time, higher T/C = longer survival
Method in brief: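 In tumour-bearing mice, survival after compound treatment is set against the vehicle group and given as a quotient.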

[1] = dose: 25.0 mg/kg/injection, schedule: Q01DX009 (ip), vehicle: saline with Tween-80
[2] = dose: 50.0 mg/kg/injection, schedule: Q01DX009 (ip), vehicle: saline with Tween-80
[3] = dose: 100.0 mg/kg/injection, schedule: Q01DX009 (ip), vehicle: saline with Tween-80
[4] = dose: 200.0 mg/kg/injection, schedule: Q01DX009 (ip), vehicle: saline with Tween-80
[5] = dose: 400.0 mg/kg/injection, schedule: Q04DX003 (ip), vehicle: saline

CCC(C)C(=O)O[C@H]1C(=O)O[C@@H]2C[C@H]3C(C)=CC(=O)[C@@H](O)[C@]3(C)[C@H]3[C@@H](O)[C@H](O)[C@@]4(C)OC[C@]32[C@@H]14 (some centres not stated)
T/C (dose: 0.02 mg/kg/injection, schedule: Q01DX009 (ip), vehicle: saline + alcohol): 134 % of control
T/C (dose: 0.05 mg/kg/injection, schedule: Q01DX009 (ip), vehicle: saline + alcohol): 134 % of control
T/C (dose: 0.1 mg/kg/injection, schedule: Q01DX009 (ip), vehicle: saline + alcohol): 144 % of control
T/C (dose: 0.12 mg/kg/injection, schedule: Q01DX009 (ip), vehicle: saline + alcohol): 140 % of control
T/C (dose: 0.19 mg/kg/injection, schedule: Q01DX009 (ip), vehicle: saline + alcohol): 149 % of control
T/C (dose: 0.25 mg/kg/injection, schedule: Q01DX009 (ip), vehicle: saline + alcohol): 132 % of control
T/C (dose: 0.38 mg/kg/injection, schedule: Q01DX009 (ip), vehicle: saline + alcohol): 141 % of control
T/C (dose: 0.5 mg/kg/injection, schedule: Q01DX009 (ip), vehicle: saline + alcohol): 132 % of control
survivor count (dose: 6.0 mg/kg/injection, schedule: Q01DX009 (ip), vehicle: saline + alcohol): 1 of 6

CC(C#N)(C#N)N=Nc1ccc(Cl)cc1Cl
T/C [1]: 125 % of control
T/C [2]: 127 and 127 % of control [5 of 6 alive]
T/C [3]: 130 % of control
T/C [4]: 125 % of control (2×)

OCCOCCOCCN1CCN(CCCN2c3ccccc3Sc3ccc(C(F)(F)F)cc32)CC1
survivor count (dose: 1.57 mg/kg/injection, schedule: Q01DX009 (ip), vehicle: saline): 4 of 6
survivor count (dose: 3.12 mg/kg/injection, schedule: Q01DX009 (ip), vehicle: saline): 5 of 6
survivor count (dose: 12.5 mg/kg/injection, schedule: Q01DX009 (ip), vehicle: saline): 1 of 6
survivor count (dose: 25.0 mg/kg/injection, schedule: Q01DX009 (ip), vehicle: saline): 4 of 6
survivor count (dose: 50.0 mg/kg/injection, schedule: Q01DX009 (ip), vehicle: saline): 1 of 6
survivor count (dose: 100.0 mg/kg/injection, schedule: Q01DX009 (ip), vehicle: saline): 0 of 6

COc1ccc(C2=NC(c3ccccc3)NC(c3ccccc3)/C2=C/c2ccccc2)cc1 (configuration not stated)
T/C [1]: 128 % of control

Nc1ccc2c(-c3ccccc3)cc(NCCCN3CCOCC3)nc2n1
survivor count [5]: 6 of 6

C/C(=N\NC(=S)N1CCCCC1)c1ccccn1
survivor count [2]: 2 of 6
survivor count [3]: 0 of 6
survivor count [4]: 1 of 6

Cc1cc(=O)[nH]c(N/N=C/c2ccco2)n1
survivor count (dose: 100.0 mg/kg/injection, schedule: Q01DX009 (ip), vehicle: gum acacia): 0 of 6
survivor count (dose: 200.0 mg/kg/injection, schedule: Q01DX009 (ip), vehicle: gum acacia): 0 of 6
survivor count (dose: 400.0 mg/kg/injection, schedule: Q01DX009 (ip), vehicle: gum acacia): 0 of 6
survivor count (dose: 400.0 mg/kg/injection, schedule: Q04DX003 (ip), vehicle: gum acacia): 4 of 6

O=C(NC1=NN(c2ccccc2)C(=O)C1)Nc1ccccc1
T/C (dose: 350.0 mg/kg/injection, schedule: Q01DX009 (ip), vehicle: saline with Tween-80): 129 % of control

COC1=C(OC)C23CCc4ccc(OC)c(O)c4C2(CCN3C)CC1=O (configuration not stated)
survivor count (dose: 200.0 mg/kg/injection, schedule: Q01DX010 (ip), vehicle: carboxymethylcellulose (CMC)): 0 of 6

O=[N+]([O-])c1cccc(O)c1
survivor count (dose: 400.0 mg/kg/injection, schedule: Q01DX009 (ip), vehicle: saline with Tween-80): 3 of 6
survivor count [5]: 3 of 6

Nc1cc(N)nc(S(=O)O)n1
T/C (dose: 35.0 mg/kg/injection, schedule: Q01DX009 (ip), vehicle: Klucel (hydroxypropylcellulose) (HPC)): 127 % of control
T/C (dose: 50.0 mg/kg/injection, schedule: Q01DX009 (ip), vehicle: Klucel (hydroxypropylcellulose) (HPC)): 127 and 130 % of control
T/C (dose: 75.0 mg/kg/injection, schedule: Q01DX009 (ip), vehicle: Klucel (hydroxypropylcellulose) (HPC)): 133 % of control

COc1cc([C@@H]2c3cc4c(cc3[C@H](SC(=N)N)[C@H]3COC(=O)[C@H]23)OCO4)cc(OC)c1OC
survivor count (dose: 40.0 mg/kg/injection, schedule: Q01DX009 (ip), vehicle: Klucel (hydroxypropylcellulose) (HPC)): 7 of 10
survivor count (dose: 60.0 mg/kg/injection, schedule: Q01DX009 (ip), vehicle: Klucel (hydroxypropylcellulose) (HPC)): 9 of 10
